PubChem BioAssay AID1508588 – Peter MacCallum Cancer Centre – 2020

Aim: 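Genome-wide search for knock-downs that heighten vemurafenib action in melanoma cells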 (primary screen)
Cells: human WM266.4 melanoma cells (BRAF V600 mutant)
Reagents: siRNA pool against human genes, 40 nM
Timing: 96 h from transfection to read-out
Conditions: vemurafenib 300 nM (about IC25), added 48 h after transfection, for 48 h; comparison arm got DMSO vehicle only
Detection: 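Ratios to non-targeting siRNA for cell gain, counted as DAPI nuclei after minus before drug and averaged over two replicates, and for absorbance-read medium lactate per cell; both binned into fold-change classes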
Direction: cell gain with vemurafenib: higher = more cell gain than with non-targeting siRNA; lactate per cell with vemurafenib: higher = more lactate made per cell
Active means: 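Enhancement is called by pairing each knock-down's vehicle-arm and drug-arm fold-change classes for viability or glycolysis; which class combinations qualify is not given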
Calls: active = enhances vemurafenib effect; inactive = no enhancement seen
The deposit covers about 18,000 reagents; this is a part drawn at random. Over the whole deposit, 790 (4.4%) were called active. 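Calls rest on a combination of fold-change classes in drug and vehicle arms, not all shown here.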 A number with no mark means an inactive call.

gene knocked down	cell gain with vemurafenib	lactate per cell with vemurafenib
RPS6KA4 (ribosomal protein S6 kinase A4)	0.11	0.93
CD163L1 (CD163 molecule like 1)	0.62	1.27
A4GALT (alpha 1,4-galactosyltransferase (P1PK blood group))	0.02	0.72
ROCK1 (Rho associated coiled-coil containing protein kinase 1)	0.91	1.53
CCKBR (cholecystokinin B receptor)	1.05	0.54
SYT17 (synaptotagmin 17)	0.62	0.42
ZFHX3 (zinc finger homeobox 3)	0.79	1.07
PHPT1 (phosphohistidine phosphatase 1)	0.81	0.69
LOC652436 (retired record)	0.75	0.79
PLSCR5 (phospholipid scramblase family member 5)	1.15	0.63
XXYLT1 (xyloside xylosyltransferase 1)	0.42	1.08
ANTXR1 (ANTXR cell adhesion molecule 1)	1.1	0.81
GOLGA7B (golgin A7 family member B)	0.84	0.94
H2BC9 (H2B clustered histone 9)	0.38	1.66
SMARCA4	0.52	0.82
PIGP (phosphatidylinositol glycan anchor biosynthesis class P)	0.2	1.08
CNNM3	0.4	1.57
STRN3 (striatin 3)	0.36	1.18
OR9K2 (olfactory receptor family 9 subfamily K member 2)	0.27	1.02
ZGPAT (zinc finger CCCH-type and G-patch domain containing)	0.89	0.7
MBD4 (methyl-CpG binding domain 4, DNA glycosylase)	0.77	0.8
NUTM1 (NUT midline carcinoma family member 1)	0.59	0.95
FIGNL2 (fidgetin like 2)	0.77	1.08
MYL6B (myosin light chain 6B)	0.5	1.6
ZFR (zinc finger RNA binding protein)	0.44	1.02
SSTR5 (somatostatin receptor 5)	0.22	1.34
CEP43 (centrosomal protein 43)	0.73	0.64
FANCC (FA complementation group C)	0.35	2.02
HRC (histidine rich calcium binding protein)	0.99	1
MRGPRX2 (MAS related GPR family member X2)	0.59	0.42
ANKRD35 (ankyrin repeat domain 35)	0.92	0.64
OR2A1 (olfactory receptor family 2 subfamily A member 1)	0.74	0.6
C12orf43 (chromosome 12 open reading frame 43)	0.52	0.82
ZNF596 (zinc finger protein 596)	0.82	0.27
STS (steroid sulfatase)	0.26	1.73
ZNF696 (zinc finger protein 696)	0.6	0.7
MYNN (myoneurin)	0.45	0.87
CYP4A22 (cytochrome P450 family 4 subfamily A member 22)	0.74	0.79
SESN1 (sestrin 1)	0.66	0.93
OPN1LW (opsin 1, long wave sensitive)	0.7	0.82
CCNI (cyclin I)	0.77	0.84
TMEM120B (transmembrane protein 120B)	0.78	0.7
SAMD15 (sterile alpha motif domain containing 15)	0.98	0.62
CSAG1 (chondrosarcoma associated gene 1)	0.33	3.23
DOLPP1 (dolichyldiphosphatase 1)	0.66	0.96
RTN3 (reticulon 3)	0.78	1.03
OXCT2 (3-oxoacid CoA-transferase 2)	0.21	1.13
ANXA8 (annexin A8)	0.69	1.45
CCN6 (cellular communication network factor 6)	0.33	0.25
ETF1 (eukaryotic translation termination factor 1)	0.32	1.42
ZNF580 (zinc finger protein 580)	0.34	0.92
PRAF2 (PRA1 domain family member 2)	0.52	0.52
FANCD2OS (FANCD2 opposite strand)	1.09	1.33
FGF22 (fibroblast growth factor 22)	0.14	1.08
ITLN1 (intelectin 1)	1.35	0.66
TMEM63A (transmembrane protein 63A)	0.71	1.44
KLHL11 (kelch like family member 11)	0.95	0.73

7 entries from above, set out differently:
gene knocked down,cell gain with vemurafenib,lactate per cell with vemurafenib
SYT17 (synaptotagmin 17),0.62,0.42
ZFHX3 (zinc finger homeobox 3),0.79,1.07
PHPT1 (phosphohistidine phosphatase 1),0.81,0.69
LOC652436 (retired record),0.75,0.79
PLSCR5 (phospholipid scramblase family member 5),1.15,0.63
XXYLT1 (xyloside xylosyltransferase 1),0.42,1.08
ANTXR1 (ANTXR cell adhesion molecule 1),1.1,0.81
